From the supplement of paper PMC8728848
The other results are listed elsewhere or left out.

Key:
Assay in all cases: glycan array binding signal (z-score within array); higher = stronger binding
Details in all cases: glycan notation: IUPAC condensed, linker removed
Man(b1-4)GlcNAc = molecular target: Man(b1-4)GlcNAc
In short: (§1)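 Glycan array data came from 3228 arrays in the Consortium for Functional Glycomics database, and only arrays with an available protein sequence were kept. Glycan names were put into IUPAC-condensed notation, and columns mapping to the same glycan were averaged. The binding signal is a within-array Z-score, averaged across arrays of one protein sequence run at different concentrations or buffers and across linkers. A negative Z-score can be read as non-binding.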

Neu5Ac(a2-3)Gal = molecular target: Neu5Ac(a2-3)Gal
In short: as §1

[1] = molecular target: Neu5Ac(a2-3)Gal(b1-3)GalNAc
In short: as §1

[2] = molecular target: Neu5Ac(a2-3)Gal(b1-3)GalNAc(b1-3)Gal(a1-4)Gal(b1-4)Glc
In short: as §1

[3] = molecular target: Neu5Ac(a2-3)Gal(b1-3)GalNAc(b1-3)Gal(b1-4)GlcNAc
In short: as §1

[4] = molecular target: Neu5Ac(a2-3)Gal(b1-3)GalNAc(b1-4)[Neu5Ac(a2-3)]Gal(b1-4)Glc
In short: as §1

[5] = molecular target: Neu5Ac(a2-3)Gal(b1-3)GalNAc6S
In short: as §1

[6] = molecular target: Neu5Ac(a2-3)Gal(b1-3)GlcNAc
In short: as §1

[7] = molecular target: Neu5Ac(a2-3)Gal(b1-3)GlcNAc(b1-3)Gal(b1-3)GlcNAc
In short: as §1

[8] = molecular target: Neu5Ac(a2-3)Gal(b1-3)GlcNAc6S
In short: as §1

[9] = molecular target: Neu5Ac(a2-3)Gal(b1-3)[Fuc(a1-4)]GlcNAc
In short: as §1

[10] = molecular target: Neu5Ac(a2-3)Gal(b1-3)[Fuc(a1-4)]GlcNAc(b1-3)Gal(b1-3)[Fuc(a1-4)]GlcNAc
In short: as §1

[11] = molecular target: Neu5Ac(a2-3)Gal(b1-3)[Fuc(a1-4)]GlcNAc(b1-3)Gal(b1-4)[Fuc(a1-3)]GlcNAc
In short: as §1

[12] = molecular target: Neu5Ac(a2-3)Gal(b1-3)[Neu5Ac(a2-3)Gal(b1-4)]GlcNAc
In short: as §1

[13] = molecular target: Neu5Ac(a2-3)Gal(b1-3)[Neu5Ac(a2-6)]GalNAc
In short: as §1

Neu5Ac(a2-3)Gal(b1-4)Glc = molecular target: Neu5Ac(a2-3)Gal(b1-4)Glc
In short: as §1

[14] = molecular target: Neu5Ac(a2-3)Gal(b1-4)GlcNAc
In short: as §1

[15] = molecular target: Neu5Ac(a2-3)Gal(b1-4)GlcNAc(b1-2)Man(a1-3)[GlcNAc(b1-2)Man(b1-4)GlcNAc(b1-2)Man(a1-6)]Man(b1-4)GlcNAc(b1-4)GlcNAc
In short: as §1

[16] = molecular target: Neu5Ac(a2-3)Gal(b1-4)GlcNAc(b1-2)Man(a1-3)[Neu5Ac(a2-6)Gal(b1-4)GlcNAc(b1-2)Man(a1-6)]Man(b1-4)GlcNAc(b1-4)GlcNAc
In short: as §1

[17] = molecular target: Neu5Ac(a2-3)Gal(b1-4)GlcNAc(b1-3)Gal(b1-3)GlcNAc
In short: as §1

[18] = molecular target: Neu5Ac(a2-3)Gal(b1-4)GlcNAc(b1-3)Gal(b1-4)GlcNAc
In short: as §1

[19] = molecular target: Neu5Ac(a2-3)Gal(b1-4)GlcNAc(b1-3)Gal(b1-4)GlcNAc(b1-3)Gal(b1-4)GlcNAc
In short: as §1

[20] = molecular target: Neu5Ac(a2-3)Gal(b1-4)GlcNAc(b1-3)Gal(b1-4)[Fuc(a1-3)]GlcNAc
In short: as §1

[21] = molecular target: Neu5Ac(a2-3)Gal(b1-4)GlcNAc(b1-3)GalNAc
In short: as §1

[22] = molecular target: Neu5Ac(a2-3)Gal(b1-4)GlcNAc(b1-6)[Gal(b1-3)]GalNAc
In short: as §1

[23] = molecular target: Neu5Ac(a2-3)Gal(b1-4)GlcNAc(b1-6)[Neu5Ac(a2-3)Gal(b1-3)]GalNAc
In short: as §1

[24] = molecular target: Neu5Ac(a2-3)Gal(b1-4)GlcNAc6S
In short: as §1

[25] = molecular target: Neu5Ac(a2-3)Gal(b1-4)[Fuc(a1-3)]GlcNAc
In short: as §1

[26] = molecular target: Neu5Ac(a2-3)Gal(b1-4)[Fuc(a1-3)]GlcNAc(b1-3)Gal
In short: as §1

[27] = molecular target: Neu5Ac(a2-3)Gal(b1-4)[Fuc(a1-3)]GlcNAc(b1-3)Gal(b1-4)GlcNAc
In short: as §1

[28] = molecular target: Neu5Ac(a2-3)Gal(b1-4)[Fuc(a1-3)]GlcNAc(b1-3)Gal(b1-4)[Fuc(a1-3)]GlcNAc(b1-3)Gal(b1-4)[Fuc(a1-3)]GlcNAc
In short: as §1

[29] = molecular target: Neu5Ac(a2-3)Gal(b1-4)[Fuc(a1-3)]GlcNAc(b1-6)[Gal(b1-3)]GalNAc
In short: as §1

[30] = molecular target: Neu5Ac(a2-3)Gal(b1-4)[Fuc(a1-3)]GlcNAc(b1-6)[Neu5Ac(a2-3)Gal(b1-3)]GalNAc
In short: as §1

[31] = molecular target: Neu5Ac(a2-3)Gal(b1-4)[Fuc(a1-3)]GlcNAc6S
In short: as §1

[32] = molecular target: Neu5Ac(a2-3)Gal6S(b1-4)GlcNAc
In short: as §1

[33] = molecular target: Neu5Ac(a2-3)Gal6S(b1-4)[Fuc(a1-3)]GlcNAc
In short: as §1

Neu5Ac(a2-3)GalNAc = molecular target: Neu5Ac(a2-3)GalNAc
In short: as §1

[34] = molecular target: Neu5Ac(a2-3)GalNAc(b1-4)GlcNAc
In short: as §1

[35] = molecular target: Neu5Ac(a2-3)[GalNAc(b1-4)]Gal(b1-4)Glc
In short: as §1

[36] = molecular target: Neu5Ac(a2-3)[GalNAc(b1-4)]Gal(b1-4)GlcNAc
In short: as §1

[37] = molecular target: Neu5Ac(a2-3)[Neu5Ac(a2-6)]GalNAc
In short: as §1

Neu5Ac(a2-6)Gal = molecular target: Neu5Ac(a2-6)Gal
In short: as §1

B1: CTLX (Homo sapiens), Q6UXS0 (protein)
chain: SLCPLFWMEFKGHCYRFFPLNKTWAEADLYCSEFSVGRKSAKLASIHSWEENVFVYDLVNSCVPGIPADVWTGLHDHRQEGQFEWTDGSSYDYSYWDGSQPDDGVHADPEEEDCVQIWYRPTSALRSWNDNTCSRKFPFVCKIPSLTIH
glycan array binding signal (z-score) (Man(b1-4)GlcNAc): -0.67 | glycan array binding signal (z-score) (Neu5Ac(a2-3)Gal): -0.528 | glycan array binding signal (z-score) [1]: -1.15 | glycan array binding signal (z-score) [2]: -1.66 | glycan array binding signal (z-score) [3]: 0.309 | glycan array binding signal (z-score) [4]: 0.12 | glycan array binding signal (z-score) [5]: -0.166 | glycan array binding signal (z-score) [6]: -0.757 | glycan array binding signal (z-score) [7]: -0.392 | glycan array binding signal (z-score) [8]: -0.421 | glycan array binding signal (z-score) [9]: -0.468 | glycan array binding signal (z-score) [10]: 1.2 | glycan array binding signal (z-score) [11]: -0.602 | glycan array binding signal (z-score) [12]: -0.427 | glycan array binding signal (z-score) [13]: 0.498 | glycan array binding signal (z-score) (Neu5Ac(a2-3)Gal(b1-4)Glc): 0.763 | glycan array binding signal (z-score) [14]: -0.216 | glycan array binding signal (z-score) [15]: -0.248 | glycan array binding signal (z-score) [16]: -0.689 | glycan array binding signal (z-score) [17]: -0.496 | glycan array binding signal (z-score) [18]: -0.297 | glycan array binding signal (z-score) [19]: -0.31 | glycan array binding signal (z-score) [20]: -0.47 | glycan array binding signal (z-score) [21]: -1.05 | glycan array binding signal (z-score) [22]: -0.846 | glycan array binding signal (z-score) [23]: -0.224 | glycan array binding signal (z-score) [24]: 2.28 | glycan array binding signal (z-score) [25]: -0.167 | glycan array binding signal (z-score) [26]: 0.23 | glycan array binding signal (z-score) [27]: 0.362 | glycan array binding signal (z-score) [28]: 0.44 | glycan array binding signal (z-score) [29]: 4 | glycan array binding signal (z-score) [30]: 0.767 | glycan array binding signal (z-score) [31]: 0.88 | glycan array binding signal (z-score) [32]: -0.685 | glycan array binding signal (z-score) [33]: -0.835 | glycan array binding signal (z-score) (Neu5Ac(a2-3)GalNAc): -0.156 | glycan array binding signal (z-score) [34]: -0.604 | glycan array binding signal (z-score) [35]: -1.19 | glycan array binding signal (z-score) [36]: -0.041 | glycan array binding signal (z-score) [37]: -1.38 | glycan array binding signal (z-score) (Neu5Ac(a2-6)Gal): -1.17
